For four substances, binding results are on record in article doi:10.1101/2020.07.22.215871.

Results are given in words; binding and its absence hold for the method and conditions named. Binding seen in cells or lysates may run through a third protein. These calls come from enrichment with a bait or labelling near it, and not all partners need be listed.

In the test the target is YFP-TAC102 (Trypanosoma brucei) (UniProt Q57XN5). The test is described as follows: affinity purification with mass spectrometry.
In the case of TAC40 (from UniProt Q581S0), the binding result was “binds”.
Turning to TAC60 (from UniProt Q57WR0), the binding result was “binds”.
To TAC65 (from UniProt Q57W28) belongs “binds”.
Turning to Tb927.11.16120 (from UniProt Q381H4), the binding result was “binds”.
